Drawing on publication PMC5839403, this text covers binding for 1 substance.

No constants are given. Whether binding was seen depends on the method and setting. Binding seen in cells or lysates may run through a third protein. A result given as binding can be weak or reduced; the word gives no strength.

This experiment concerns the target T1, VDR (human (endogenous in HL-60)) (UniProt P11473).
T1 sequence: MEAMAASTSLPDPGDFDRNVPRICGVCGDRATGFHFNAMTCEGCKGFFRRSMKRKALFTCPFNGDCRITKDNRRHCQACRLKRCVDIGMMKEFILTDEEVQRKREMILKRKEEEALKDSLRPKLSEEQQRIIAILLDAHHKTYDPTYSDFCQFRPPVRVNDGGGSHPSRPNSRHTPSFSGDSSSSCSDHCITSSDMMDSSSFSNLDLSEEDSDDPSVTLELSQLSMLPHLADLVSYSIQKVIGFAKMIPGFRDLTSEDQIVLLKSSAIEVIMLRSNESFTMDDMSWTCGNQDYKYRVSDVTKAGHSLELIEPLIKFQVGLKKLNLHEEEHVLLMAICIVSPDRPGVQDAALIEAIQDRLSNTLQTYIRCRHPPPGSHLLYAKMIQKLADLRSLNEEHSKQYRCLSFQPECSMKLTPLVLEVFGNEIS
The experiment is described as follows: co-IP; 250 μg pre-cleared nuclear lysate of HL-60 cells (NE-PER fractionation; untreated, 0.5 μM D3, or D3 plus 10 μM RRD-251, 48 hours) incubated overnight with 3.5 μg precipitating antibody and Protein G magnetic beads, washed 3 times, Western blot.

For “glycogen synthase kinase-3 (total GSK-3 α/β) (human (endogenous in HL-60))”, the binding result is given as “binds”.
